Measurements taken from PMC9703767.

The chains behind the UniProt entries cited, without tags or fusion partners.
UniProt O35134: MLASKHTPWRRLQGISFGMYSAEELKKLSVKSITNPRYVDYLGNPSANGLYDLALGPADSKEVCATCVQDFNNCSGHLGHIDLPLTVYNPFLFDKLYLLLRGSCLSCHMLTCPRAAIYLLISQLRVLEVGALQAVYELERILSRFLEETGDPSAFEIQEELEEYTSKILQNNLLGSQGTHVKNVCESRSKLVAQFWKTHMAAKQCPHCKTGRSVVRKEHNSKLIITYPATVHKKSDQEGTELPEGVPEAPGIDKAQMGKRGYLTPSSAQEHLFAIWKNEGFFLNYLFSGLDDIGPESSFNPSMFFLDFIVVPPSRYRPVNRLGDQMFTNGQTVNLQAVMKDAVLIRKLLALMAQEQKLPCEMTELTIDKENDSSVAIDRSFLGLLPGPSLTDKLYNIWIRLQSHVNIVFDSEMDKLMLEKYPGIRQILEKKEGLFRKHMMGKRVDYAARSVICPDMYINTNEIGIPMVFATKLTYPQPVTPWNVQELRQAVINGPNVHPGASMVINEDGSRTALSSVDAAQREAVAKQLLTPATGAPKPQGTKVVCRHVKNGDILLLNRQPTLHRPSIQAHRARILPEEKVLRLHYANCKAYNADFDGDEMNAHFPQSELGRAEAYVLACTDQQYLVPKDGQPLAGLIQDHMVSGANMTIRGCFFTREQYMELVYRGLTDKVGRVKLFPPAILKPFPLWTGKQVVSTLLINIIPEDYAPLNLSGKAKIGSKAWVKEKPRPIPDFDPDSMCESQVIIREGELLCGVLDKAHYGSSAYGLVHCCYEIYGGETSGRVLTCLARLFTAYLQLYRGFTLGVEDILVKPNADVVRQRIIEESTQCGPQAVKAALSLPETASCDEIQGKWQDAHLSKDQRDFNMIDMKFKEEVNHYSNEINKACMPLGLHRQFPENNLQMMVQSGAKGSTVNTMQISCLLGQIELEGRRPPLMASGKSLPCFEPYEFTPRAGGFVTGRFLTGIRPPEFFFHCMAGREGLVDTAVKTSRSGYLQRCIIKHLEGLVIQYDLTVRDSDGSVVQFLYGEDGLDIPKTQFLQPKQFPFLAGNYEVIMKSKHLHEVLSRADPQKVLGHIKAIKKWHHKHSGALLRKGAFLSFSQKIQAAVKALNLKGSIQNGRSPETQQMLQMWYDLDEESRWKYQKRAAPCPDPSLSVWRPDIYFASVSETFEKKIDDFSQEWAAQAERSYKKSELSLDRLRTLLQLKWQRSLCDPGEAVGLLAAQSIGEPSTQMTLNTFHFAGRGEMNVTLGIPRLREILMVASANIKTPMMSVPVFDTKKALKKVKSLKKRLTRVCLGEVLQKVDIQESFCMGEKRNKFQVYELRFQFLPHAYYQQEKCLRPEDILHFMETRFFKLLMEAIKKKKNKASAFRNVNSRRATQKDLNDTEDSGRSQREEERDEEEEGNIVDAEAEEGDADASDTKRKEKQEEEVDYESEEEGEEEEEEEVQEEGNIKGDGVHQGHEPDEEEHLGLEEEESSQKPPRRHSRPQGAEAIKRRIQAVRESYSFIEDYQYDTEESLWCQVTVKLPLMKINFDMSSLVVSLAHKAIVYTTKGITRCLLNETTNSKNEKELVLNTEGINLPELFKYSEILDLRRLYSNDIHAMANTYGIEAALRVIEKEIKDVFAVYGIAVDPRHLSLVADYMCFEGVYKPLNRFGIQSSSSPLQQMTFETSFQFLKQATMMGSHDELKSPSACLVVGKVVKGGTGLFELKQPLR
UniProt P52432: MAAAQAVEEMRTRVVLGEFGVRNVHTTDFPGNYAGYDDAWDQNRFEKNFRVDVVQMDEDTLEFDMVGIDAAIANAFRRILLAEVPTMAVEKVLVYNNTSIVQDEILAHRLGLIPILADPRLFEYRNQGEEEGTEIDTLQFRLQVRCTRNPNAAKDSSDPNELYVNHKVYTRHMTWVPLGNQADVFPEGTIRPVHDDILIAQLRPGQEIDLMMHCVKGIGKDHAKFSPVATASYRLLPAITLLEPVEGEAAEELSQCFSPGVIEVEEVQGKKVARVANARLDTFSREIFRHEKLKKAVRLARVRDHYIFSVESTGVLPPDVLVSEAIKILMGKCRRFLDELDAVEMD
UniProt P97304: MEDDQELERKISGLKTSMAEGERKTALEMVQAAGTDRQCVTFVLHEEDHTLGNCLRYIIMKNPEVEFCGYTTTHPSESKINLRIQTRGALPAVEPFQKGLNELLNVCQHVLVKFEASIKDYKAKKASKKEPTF

Target: RNA polymerase I largest subunit RPA1 (mouse (endogenous in mESCs)) (UniProt O35134)
Test: affinity purification with mass spectrometry; ChIP coupled to quantitative MS for Pol I, Pol II and Pol III; cells fixed with 1% formaldehyde for 10 min, chromatin fractions treated with MNase and sonicated, antibody enrichment

binding | Substance
binds | RPAC1 (from UniProt P52432 1-346)
binds | RPAC2 (from UniProt P97304 1-133)

These are yes or no findings as the source states them, for the method shown. Binding seen in cells or lysates may run through a third protein. A yes stands for co-enrichment or nearness to the bait. Other partners may have been found.
